Laboratory results reported in patent publication US4725645 (dated 1988).

Experiment: general procedure: solution-phase peptide synthesis
Conditions: trifluoroacetic acid salt

For [Met^5 ]-enkephalin, the step yield (coupling step) was 95% and the isolated yield (whole synthesis, total yield) was 60%.
